Experimental data published in article PMC5059873.
Results are given in words; binding and its absence hold for the method and conditions named. Binding seen in cells or lysates may run through a third protein. Some results given as binding are weak or reduced against the parent protein; the word gives no strength.

Protein sequences, listed by entry. Tags and fused reporters are not part of them.
UniProt Q8R4B8: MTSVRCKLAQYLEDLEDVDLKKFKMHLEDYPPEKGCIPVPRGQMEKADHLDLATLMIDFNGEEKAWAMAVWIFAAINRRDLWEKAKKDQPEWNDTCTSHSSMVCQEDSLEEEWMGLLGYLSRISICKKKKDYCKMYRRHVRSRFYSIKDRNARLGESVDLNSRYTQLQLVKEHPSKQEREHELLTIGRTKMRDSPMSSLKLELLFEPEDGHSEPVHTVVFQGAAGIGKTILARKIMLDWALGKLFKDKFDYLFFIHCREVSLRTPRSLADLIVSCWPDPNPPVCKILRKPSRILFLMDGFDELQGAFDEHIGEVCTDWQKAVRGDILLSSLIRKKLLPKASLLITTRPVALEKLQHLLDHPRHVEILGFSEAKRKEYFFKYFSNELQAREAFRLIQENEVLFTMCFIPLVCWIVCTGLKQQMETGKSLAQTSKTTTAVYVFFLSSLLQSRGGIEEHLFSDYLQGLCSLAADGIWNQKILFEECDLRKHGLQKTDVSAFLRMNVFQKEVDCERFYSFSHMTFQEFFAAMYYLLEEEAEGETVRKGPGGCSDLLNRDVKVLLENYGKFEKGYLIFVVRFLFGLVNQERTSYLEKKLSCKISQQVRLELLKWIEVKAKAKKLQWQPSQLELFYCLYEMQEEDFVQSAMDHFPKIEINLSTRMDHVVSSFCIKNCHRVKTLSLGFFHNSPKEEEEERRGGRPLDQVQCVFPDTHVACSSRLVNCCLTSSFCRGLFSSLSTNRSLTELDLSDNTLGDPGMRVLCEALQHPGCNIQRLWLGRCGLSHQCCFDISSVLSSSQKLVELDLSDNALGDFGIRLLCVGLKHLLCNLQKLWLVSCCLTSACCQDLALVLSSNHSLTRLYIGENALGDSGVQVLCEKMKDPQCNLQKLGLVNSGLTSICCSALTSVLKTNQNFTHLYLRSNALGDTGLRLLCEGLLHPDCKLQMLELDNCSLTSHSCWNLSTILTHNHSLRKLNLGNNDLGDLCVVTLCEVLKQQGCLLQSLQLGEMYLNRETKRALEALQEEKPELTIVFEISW

Biological target: T1, thioredoxin-interacting protein (mouse (endogenous in MLVEC)) (UniProt Q8BG60)
T1 sequence: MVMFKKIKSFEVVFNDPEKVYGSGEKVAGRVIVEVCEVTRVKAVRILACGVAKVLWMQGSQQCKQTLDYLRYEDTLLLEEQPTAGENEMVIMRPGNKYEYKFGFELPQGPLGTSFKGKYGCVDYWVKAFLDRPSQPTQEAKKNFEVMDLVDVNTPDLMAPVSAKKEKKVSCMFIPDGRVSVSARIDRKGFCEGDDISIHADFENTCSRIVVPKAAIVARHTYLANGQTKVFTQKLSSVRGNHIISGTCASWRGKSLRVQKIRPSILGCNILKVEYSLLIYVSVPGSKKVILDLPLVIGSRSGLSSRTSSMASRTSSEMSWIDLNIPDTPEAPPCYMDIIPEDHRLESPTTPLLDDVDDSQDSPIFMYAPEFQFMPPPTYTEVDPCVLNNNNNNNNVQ
Assay: co-IP; MLVEC lysate (600 ug total protein) immunoprecipitated with anti-TXNIP Ab, blotted for Nlrp3; lysis buffer 10 mM Tris pH 7.4, 150 mM NaCl, 5 mM EDTA, 1% Triton X-100; cells treated with HMGB1 (0.5 ug/ml, 4 h) and then LPS (1 ug/ml, 3 h); in some experiments NAC (10 mM) 30 min before

binding: binds
Substance: Nlrp3 (NACHT, LRR and PYD domains containing protein 3) (from UniProt Q8R4B8 1-1033)
